According to PMC6923955:
These are yes or no findings as the source states them, for the method shown. In cells and extracts the contact can be indirect. Some entries that bind do so weakly or less than the wild type.

Chains of the proteins cited; added tags and fusions are not shown.
UniProt P04198: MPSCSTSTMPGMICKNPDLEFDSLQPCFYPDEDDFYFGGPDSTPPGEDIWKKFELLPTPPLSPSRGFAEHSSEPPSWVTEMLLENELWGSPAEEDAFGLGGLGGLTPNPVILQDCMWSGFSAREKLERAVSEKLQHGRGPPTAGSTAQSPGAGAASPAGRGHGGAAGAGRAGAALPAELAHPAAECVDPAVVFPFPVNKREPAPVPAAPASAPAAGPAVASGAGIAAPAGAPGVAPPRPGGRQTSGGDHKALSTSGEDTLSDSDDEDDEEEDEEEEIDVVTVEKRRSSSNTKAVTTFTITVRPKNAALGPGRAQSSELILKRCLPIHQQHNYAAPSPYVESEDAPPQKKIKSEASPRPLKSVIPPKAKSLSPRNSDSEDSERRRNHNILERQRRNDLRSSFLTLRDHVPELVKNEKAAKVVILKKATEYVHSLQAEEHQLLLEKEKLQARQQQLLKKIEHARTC
UniProt P35226: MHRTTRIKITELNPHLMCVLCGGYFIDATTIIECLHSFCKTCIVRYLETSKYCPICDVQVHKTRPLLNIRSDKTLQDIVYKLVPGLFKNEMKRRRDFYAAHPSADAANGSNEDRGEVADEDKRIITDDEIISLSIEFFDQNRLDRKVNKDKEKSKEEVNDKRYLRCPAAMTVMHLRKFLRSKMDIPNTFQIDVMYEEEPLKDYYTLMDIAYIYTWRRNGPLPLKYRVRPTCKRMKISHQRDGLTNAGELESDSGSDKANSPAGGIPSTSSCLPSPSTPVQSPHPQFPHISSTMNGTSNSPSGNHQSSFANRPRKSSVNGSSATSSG
UniProt Q06587: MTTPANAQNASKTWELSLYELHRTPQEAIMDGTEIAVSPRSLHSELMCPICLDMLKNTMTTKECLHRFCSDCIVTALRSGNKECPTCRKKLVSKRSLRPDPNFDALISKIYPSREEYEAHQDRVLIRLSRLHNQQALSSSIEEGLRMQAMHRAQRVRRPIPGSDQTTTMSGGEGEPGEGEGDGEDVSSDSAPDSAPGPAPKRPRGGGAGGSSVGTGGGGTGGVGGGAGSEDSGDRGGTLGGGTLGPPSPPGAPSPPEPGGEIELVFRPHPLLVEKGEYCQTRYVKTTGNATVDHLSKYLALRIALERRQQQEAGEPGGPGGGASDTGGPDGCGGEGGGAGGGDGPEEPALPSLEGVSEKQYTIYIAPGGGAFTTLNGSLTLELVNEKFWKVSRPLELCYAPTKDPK
UniProt Q99496: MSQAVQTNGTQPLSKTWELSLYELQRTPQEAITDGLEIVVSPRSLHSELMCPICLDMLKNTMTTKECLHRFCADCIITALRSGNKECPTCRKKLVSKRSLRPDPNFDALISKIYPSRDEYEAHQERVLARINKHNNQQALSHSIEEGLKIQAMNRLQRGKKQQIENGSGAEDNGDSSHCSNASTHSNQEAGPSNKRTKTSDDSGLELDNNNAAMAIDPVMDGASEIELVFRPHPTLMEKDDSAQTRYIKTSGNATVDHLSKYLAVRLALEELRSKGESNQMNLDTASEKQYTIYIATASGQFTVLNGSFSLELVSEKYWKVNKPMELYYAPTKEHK

Target: MYCN Proto-Oncogene, BHLH Transcription Factor (human (endogenous in BE(2)-C)) (UniProt P04198)
Experiment: co-IP; BE(2)-C cell lysates immunoprecipitated with antibodies against MYCN, BMI1, RING1A or RING1B; Western blot; IgG control antibody and 1% of the lysate as input

Substance	binding
BMI1 (from UniProt P35226 1-326)	binds
RING1A (from UniProt Q06587 1-406)	binds
RING1B (from UniProt Q99496 1-336)	binds
